Assay results: JP2006342173A
Results are given in words; binding and its absence hold for the method and conditions named. Some entries that bind do so weakly or less than the wild type.

By UniProt entry, the sequences of proteins in these tests, tags left out. Residues count along the entry.
UniProt P25942, residues 21-277: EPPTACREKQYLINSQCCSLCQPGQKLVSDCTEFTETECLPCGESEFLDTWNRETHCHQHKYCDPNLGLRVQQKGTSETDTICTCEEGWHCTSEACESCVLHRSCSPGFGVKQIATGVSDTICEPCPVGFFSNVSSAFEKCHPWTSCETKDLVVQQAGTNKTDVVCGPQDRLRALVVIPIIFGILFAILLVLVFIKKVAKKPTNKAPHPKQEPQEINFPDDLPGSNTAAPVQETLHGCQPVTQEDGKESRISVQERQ

Target: ヒトCD40 (human CD40 expressed on cells) (human) (UniProt P25942)
Experiment: screening by ELISA (human CD40 mouse FC) and FACS (Ramos cells)

- binding: binds
B1: F4-465抗体 (antibody, V domains shown)
VH: QVQLVQSGSELKKPGASVKVPCKASGYTFTSYAMNWVRQAPGQGLEWMGWINTNTGNPTYAQGFTGRFVFSLDTSVSTAYLQISSLKAEDTAVYYCAREVVPVAMRVTHYYYGMDVWGQGTTVTVSS
VL: SYELTQPPSVSVAPGQTASITCSGDKLGDNFTCWYQQKPGQSPVLVIFQDWKRRPGIPARFSGSKSGNTATLTISGTQAMDEADYYCQAWDISTVVFGGGT
